Experimental data: patent US20120283217A1, “MODULATORS OF AMYLOID-BETA PRODUCTION” (SATORI PHARMACEUTICALS, INC., priority 2006, published 2012)
Some of these results come from one statement about several compounds together. For at least one compound, name, drawing or mass did not settle the structure. Some compounds share one range, which may span the group rather than tell each member.

Test system: amyloid-beta (1-42) peptide
Test: cell-based assay of selective lowering of amyloid-beta (1-42) peptide, as described in U.S. Pat. No. 6,649,196

SMILES | selectively lower amyloid-beta (1-42) peptide (at 10 μM) | selectively lower amyloid-beta (1-42) peptide (at 100 nM)
CC(C#N)[C@H]1[C@H](O)CC2C3CC=C4C[C@@H](O[Si](C)(C)C(C)(C)C)CC[C@]4(C)C3CC[C@@]21C (stereo partly drawn) [Compound I-11] | selectively lower amyloid-beta (1-42) peptide | –
CC(=O)O[C@H]1CC[C@]23C[C@]24CC[C@]2(C)[C@@H]([C@H](C)CCO)CC[C@@]2(C)C4CCC3C1(C)C (stereo partly drawn) [Compound I-15, 3β-Acetoxy-9,19-Cyclo-4,4,14-trimethyl-24-norchol-23-ol] | selectively lower amyloid-beta (1-42) peptide | –
CC(=O)O[C@H]1CC[C@]23C[C@]24CC[C@]2(C)[C@@H]([C@H](C)CC(=O)O)CC[C@@]2(C)C4CCC3C1(C)C (stereo in doubt) [Compound I-17, 3β-Acetoxy-9,19-Cyclo-4,4,14-trimethyl-24-norchol-23-oic acid] | – | selectively lower amyloid-beta (1-42) peptide
CC(C#N)[C@H]1C(=O)CC2C3CC=C4C[C@@H](O[Si](C)(C)C(C)(C)C)CC[C@]4(C)C3CC[C@@]21C (stereo partly drawn) [Compound I-9] | – | selectively lower amyloid-beta (1-42) peptide
C/C=C1/C(O)CC2C3CC=C4C[C@@H](O[Si](C)(C)C(C)(C)C)CC[C@]4(C)C3CC[C@]12C (stereo in doubt) [Compound I-7] | selectively lower amyloid-beta (1-42) peptide | –
CC(C#N)[C@H]1[C@@H](O)CC2C3CC=C4C[C@@H](O[Si](C)(C)C(C)(C)C)CC[C@]4(C)C3CC[C@@]21C (stereo in doubt) [Compound I-10] | selectively lower amyloid-beta (1-42) peptide | –
COC(=O)C(=O)C[C@@H](C)[C@H]1CC[C@@]2(C)C3CCC4C(C)(C)[C@@H](OC(C)=O)CC[C@@]45C[C@@]35CC[C@]12C (stereo in doubt) [Compound I-20] | selectively lower amyloid-beta (1-42) peptide | –
CC(=O)O[C@H]1CC[C@]23C[C@]24CC[C@]2(C)[C@@H]([C@H](C)CC(=O)C(F)(F)F)CC[C@@]2(C)C4CCC3C1(C)C (stereo in doubt) [Compound I-18, 3β-Acetoxy-9,19-Cyclo-4,4,14-trimethyl-23-oxo-24-trifluorocholane] | selectively lower amyloid-beta (1-42) peptide | –
CC(=O)O[C@H]1CC[C@]23C[C@]24CC[C@]2(C)[C@@H]([C@H](C)CCC(=O)C(C)C)CC[C@@]2(C)C4CCC3C1(C)C (stereo partly drawn) [Compound I-3, 24-Oxocycloartanol-3-β-O-acetate] | – | selectively lower amyloid-beta (1-42) peptide
C/C=C1/C(=O)C[C@H]2[C@@H]3CC=C4C[C@@H](O[Si](C)(C)C(C)(C)C)CC[C@]4(C)[C@H]3CC[C@]12C [Compound I-8] | – | selectively lower amyloid-beta (1-42) peptide
CC(=O)O[C@H]1CC[C@]23C[C@]24CC[C@]2(C)[C@@H]([C@H](C)CC(=O)C(C#N)=P(c5ccccc5)(c5ccccc5)c5ccccc5)CC[C@@]2(C)C4CCC3C1(C)C (stereo in doubt) [Compound I-19] | selectively lower amyloid-beta (1-42) peptide | –
C/C=C1/CC[C@H]2[C@@H]3CC=C4C[C@@H](O[Si](C)(C)C(C)(C)C)CC[C@]4(C)[C@H]3CC[C@]12C [Compound I-6] | selectively lower amyloid-beta (1-42) peptide | –
CC(=O)O[C@H]1CC[C@]23C[C@]24CC[C@]2(C)[C@@H]([C@H](C)CCC=C(C)C)CC[C@@]2(C)C4CCC3C1(C)C (stereo partly drawn) [Compound I-2, 3-O-acetylcycloartenol] | selectively lower amyloid-beta (1-42) peptide | –
CC(=O)O[C@H]1CC[C@]23C[C@]24CC[C@]2(C)[C@@H]([C@H](C)CCC(=O)O)CC[C@@]2(C)C4CCC3C1(C)C (stereo in doubt) [Compound I-4, 3-β-O-acetyl-25,26,27-Trinorcycloartan-24-oic acid] | selectively lower amyloid-beta (1-42) peptide | –
CC(C#N)[C@H]1C2(CC3C4CC=C5C[C@@H](O)CC[C@]5(C)C4CC[C@@]31C)OCCO2 (stereo partly drawn) [Compound I-22] | selectively lower amyloid-beta (1-42) peptide | –
CC(=O)O[C@H]1CC[C@]23C[C@]24CC[C@]2(C)[C@@H]([C@H](C)CCI)CC[C@@]2(C)[C@@H]4CC[C@H]3C1(C)C [Compound I-14, 3β-Acetoxy-9,19-Cyclo-4,4,14-trimethyl-24-norchol-23-iodo] | selectively lower amyloid-beta (1-42) peptide | –
CC(C#N)[C@H]1C(=O)CC2C3CC=C4C[C@@H](O)CC[C@]4(C)C3CC[C@@]21C (stereo partly drawn) [Compound I-12] | – | selectively lower amyloid-beta (1-42) peptide
CC(=O)O[C@H]1CC[C@]23C[C@]24CC[C@]2(C)[C@@H]([C@H](C)CC=O)CC[C@@]2(C)C4CCC3C1(C)C (stereo partly drawn) [Compound I-16] | selectively lower amyloid-beta (1-42) peptide | –
